Reference: the supplement of paper PMC10646978
± gives the standard deviation. The entries are a selection whose mix differs from that of the whole data set.

Experiments:
Conditions in all cases: modulator concentration 10 µM
[1] = tested on: RAW-Dual (murine macrophage reporter line); test: NF-kB reporter (SEAP) activity fold change vs agonist alone; higher = enhanced NF-kB activity
Outline: (§1)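 RAW-Dual murine macrophage reporter cells were seeded at 50 000 per well in 384-well plates and pre-incubated 1 hour at 37 °C with compound pin-transferred to 10 μM final. After 1 hour, a PRR agonist was added and cells incubated overnight. Supernatant NF-κB (SEAP, QUANTI-Blue, 620 nm absorbance) and IRF (Lucia luciferase, QUANTI-Luc, luminescence) signals were divided by the mean agonist-only control on the same plate to give fold change. Two replicate plates were averaged, with errors by propagation.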

[2] = tested on: RAW-Dual (murine macrophage reporter line); test: IRF reporter (Lucia luciferase) activity fold change vs agonist alone; higher = enhanced IRF activity
Outline: as §1

[3] = tested on: RAW-Dual (murine macrophage reporter line); test: viability score (confluency relative to resting cells, overnight) (fraction); higher = more viable, active = viable (0.7 or more)
Outline: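 Compound was added at a final 10 μM to RAW-Dual macrophages in 384-well plates and left overnight. Confluency was imaged with IncuCyte, and two masks were generated in IncuCyte software over all imaged wells. Each viability score is confluency relative to resting cells, and a compound met the cutoff only when both masks were above 70% of resting cells.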

[4] = agonist: CpG ODN 1826 0.5 ug/mL

Compound | NF-kB reporter [1, 4] | NF-kB reporter ([1]; agonist: LPS 0.1 ug/mL) | NF-kB reporter ([1]; agonist: MPLA 0.25 ug/mL) | IRF reporter ([2]; agonist: 3'3'-cGAMP 10 ug/mL) | IRF reporter ([2]; agonist: LPS 0.1 ug/mL) | IRF reporter ([2]; agonist: MPLA 0.25 ug/mL) | viability score [3]
CN1C2CCC1CC(OC(c1ccccc1)c1ccccc1)C2.O=S(=O)(O)O (stereo not drawn) | 0.956 ± 0.11 | 0.802 ± 0.048 | 2.2 ± 0.051 | 0.876 ± 0.051 | 0.857 ± 0.1 | 2.5 ± 0.39 | –
Br.CN1C2CCC1CC(OC(=O)C(O)c1ccccc1)C2 (stereo not drawn) | 1.26 ± 0.34 | 1.07 ± 0.17 | 2.65 ± 1.6 | 0.919 ± 0.032 | 1.29 ± 0.17 | 1.4 ± 0.14 | active: 0.984
